Record: PubChem BioAssay AID1259425 (University of Nebraska Medical Center, 2018)
Purpose: 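Find knockdowns that reproduce the gene expression pattern seen when KSR1 is lost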 (primary screen). Cell system: HCT116 human colon cancer cells. Reagents: siRNA pool against human genes, 50 nM siRNA. Measurement: 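mRNA of six signature genes measured together by branched-DNA assay after 50 nM siRNA pool, blank removed, divided by geometric mean of two housekeeping genes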. Scale: BNIP3L mRNA: higher = more BNIP3L transcript after knockdown; NDRG1 mRNA: higher = more NDRG1 transcript after knockdown; BNIP3 mRNA: higher = more BNIP3 transcript after knockdown; ALDOC mRNA: higher = more ALDOC transcript after knockdown; ACSL5 mRNA: higher = more ACSL5 transcript after knockdown.
Here is one part, drawn at random, of about 14,000 reagents. Not given: the time to read-out.

gene knocked down	PubChem SID	BNIP3L mRNA, set 1	NDRG1 mRNA, set 1	BNIP3 mRNA, set 1	ALDOC mRNA, set 1	ACSL5 mRNA, set 1
FAM161A	SID364005368	0.327	0.651	0.329	0.135	0.844
TRIM27	SID363997307	0.0852	0.104	0.664	0.00382	0.355
MBIP	SID364000216	0.1	0.074	0.227	0.0113	0.154
DLST	SID363993146	0.12	0.184	0.595	0.0356	0.298
TCEAL3	SID364004272	0.165	0.69	0.475	0.0929	0.301
SLCO1B1	SID363997256	0.123	0.144	0.415	0.0335	0.142
LRRC36	SID364000953	0.123	0.239	0.349	0.0306	0.221
KRT20	SID364001328	0.0453	0.134	0.281	0.0164	0.19
MYOCD	SID364004778	0.0594	0.0963	0.272	0.0161	0.205
PXK	SID364000515	0.0753	0.111	0.35	0.00319	0.299
BRCA2	SID363991396	0.111	0.0762	0.296	0.00827	0.172
IL9R	SID363993387	0.195	0.224	0.275	0.017	0.137
RTN3	SID363996901	0.0708	0.521	0.28	0.0161	0.202
TNFSF11	SID363994771	0.0581	0.111	0.228	0.0265	0.171
AMT	SID363991804	0.117	0.354	0.353	0.000197	0.137
ZNF277	SID364002272	0.172	0.403	0.362	0.019	0.161
SS18L1	SID363999572	0.247	0.108	0.884	0.0466	0.168
MARF1	SID363999008	0.0934	0.175	0.321	0.0139	0.18
WBP1L	SID364000528	0.0842	1.05	0.294	0.0232	0.12
DEXI	SID363998550	0.135	0.349	0.466	0.0386	0.175
NINL	SID364003291	0.0857	0.108	0.185	0.0129	0.265
DUSP26	SID364002687	0.076	0.132	0.272	0.0218	0.162
C6orf47	SID364002071	0.0934	0.227	0.478	0.0236	0.149
CRYGD	SID363997648	0.0724	0.0624	0.27	0.0187	0.0671
HOXD9	SID363998654	0.115	0.158	0.189	0.0121	0.149
SPARCL1	SID363995646	0.162	0.14	0.282	0.00176	0.214
DKFZP586K1520 (retired record)	SID364005565	0.146	0.643	0.563	0.039	0.372
ART1	SID363995304	0.0815	0.108	0.449	0.0105	0.144
PPP4R3B	SID364001713	0.153	0.207	0.288	0.0215	0.353
CFAP97	SID364005270	0.136	0.219	0.501	0.031	0.253
OR2B2	SID364004303	0.123	0.0678	0.307	0.019	0.104
MAP10	SID364005603	0.0829	0.199	0.2	0.0285	0.153
GEMIN6	SID364003048	0.0952	0.165	0.282	0.0126	0.209
ADNP2	SID363999193	0.289	0.153	0.347	0.0196	0.142

In a second layout: entries from further up
DKFZP586K1520 (retired record) [SID364005565] → BNIP3L mRNA, set 1 = 0.146; NDRG1 mRNA, set 1 = 0.643; BNIP3 mRNA, set 1 = 0.563; ALDOC mRNA, set 1 = 0.039; ACSL5 mRNA, set 1 = 0.372
ART1 [SID363995304] → BNIP3L mRNA, set 1 = 0.0815; NDRG1 mRNA, set 1 = 0.108; BNIP3 mRNA, set 1 = 0.449; ALDOC mRNA, set 1 = 0.0105; ACSL5 mRNA, set 1 = 0.144
PPP4R3B [SID364001713] → BNIP3L mRNA, set 1 = 0.153; NDRG1 mRNA, set 1 = 0.207; BNIP3 mRNA, set 1 = 0.288; ALDOC mRNA, set 1 = 0.0215; ACSL5 mRNA, set 1 = 0.353
CFAP97 [SID364005270] → BNIP3L mRNA, set 1 = 0.136; NDRG1 mRNA, set 1 = 0.219; BNIP3 mRNA, set 1 = 0.501; ALDOC mRNA, set 1 = 0.031; ACSL5 mRNA, set 1 = 0.253
OR2B2 [SID364004303] → BNIP3L mRNA, set 1 = 0.123; NDRG1 mRNA, set 1 = 0.0678; BNIP3 mRNA, set 1 = 0.307; ALDOC mRNA, set 1 = 0.019; ACSL5 mRNA, set 1 = 0.104
